Laboratory results as given in patent US11491150B2, “Organic compounds” (INTRA-CELLULAR THERAPIES, INC., priority 2017, dated 2022).

Test system: mouse model of diabetes
Assay: Nephropathy in streptozotocin mouse model of diabetes (eNOS-/- mice), α7-nAchR blocker
Format: in vivo
Details: blocker 2 mg/kg i.p. 5 days a week, 10 weeks
Protocol: Normal mice express the α7-nAChR in both the proximal and distal tubule of the kidneys. Tests were conducted to determine the role of the α7-nAchR on the severity of nephropathy in a mouse model of diabetes. Diabetes mellitus (DM) was induced in all mice with streptozotocin (STZ). This test closely mimics diabetic […] in humans. Mice were either given nicotine (DN) in doses of […] in drinking water or tap water with no nicotine for a period of 10 weeks (DT). Targeted disruption of the endothelial nitric oxide synthase gene led to eNOS^-/- knockout in a group of mice to increase susceptibility of STZ in the mice. One group of eNOS^-/- knockout mice was also subjected to targeted disruption of the α7-nAchR gene, which led to eNOS^-/-/α7-nAchR^-/- double knockout mice (DN^-/- and DT^-/-). A separate group of eNOS^-/- mice also received a α7-nAchR blocker (DN+B and DT+B). The blocker used was Compound 17 at a dosage of 2 mg/kg given intraperitoneally for 5 days a week for a period of 10 weeks. Blood pressure was measured by tail-cuff method and urine was collected every 2 weeks for albuminuria.
All mice became diabetic after being administered STZ, and all mice were also hypertensive.

For `NS(=O)(=O)c1ccc(Cn2ncc(C(=O)NCC3CCN(Cc4ccccc4)CC3)n2)cc1` [Compound 17], the “Body Weight” value (DN + B: diabetic eNOS-/- mice on nicotine) was 25 ± 0.5 g and the “Body Weight” value (DT + B: diabetic eNOS-/- mice on tap water) was 26 ± 1.1 g.
